These are yes or no findings as the source states them, for the method shown. In cells and extracts the contact can be indirect. Some binding calls cover weakened binding; strength is not graded here.

Protein sequences, listed by entry. Tags and fused reporters are not part of them.
UniProt P10085: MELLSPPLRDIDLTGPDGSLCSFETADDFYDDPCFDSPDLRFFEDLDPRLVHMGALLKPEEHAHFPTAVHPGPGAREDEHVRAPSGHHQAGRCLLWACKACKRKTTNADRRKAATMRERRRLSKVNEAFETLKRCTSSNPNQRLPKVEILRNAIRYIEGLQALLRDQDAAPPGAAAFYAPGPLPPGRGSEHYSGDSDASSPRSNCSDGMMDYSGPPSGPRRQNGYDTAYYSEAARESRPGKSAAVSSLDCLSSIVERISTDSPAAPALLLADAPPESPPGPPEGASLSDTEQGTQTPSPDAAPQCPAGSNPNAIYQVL
UniProt Q8IW41: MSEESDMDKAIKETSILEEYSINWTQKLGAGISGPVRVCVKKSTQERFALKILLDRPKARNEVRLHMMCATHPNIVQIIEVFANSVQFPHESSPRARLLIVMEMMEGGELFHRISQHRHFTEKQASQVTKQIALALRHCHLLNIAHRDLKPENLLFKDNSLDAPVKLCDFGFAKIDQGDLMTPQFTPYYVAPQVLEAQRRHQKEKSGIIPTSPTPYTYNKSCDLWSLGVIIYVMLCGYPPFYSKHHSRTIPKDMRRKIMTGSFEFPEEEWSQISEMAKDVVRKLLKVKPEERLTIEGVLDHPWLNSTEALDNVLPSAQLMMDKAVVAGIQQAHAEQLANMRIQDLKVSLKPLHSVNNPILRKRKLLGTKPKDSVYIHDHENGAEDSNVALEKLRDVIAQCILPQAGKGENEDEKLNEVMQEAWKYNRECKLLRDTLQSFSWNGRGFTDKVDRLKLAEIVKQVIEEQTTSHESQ
UniProt Q16659: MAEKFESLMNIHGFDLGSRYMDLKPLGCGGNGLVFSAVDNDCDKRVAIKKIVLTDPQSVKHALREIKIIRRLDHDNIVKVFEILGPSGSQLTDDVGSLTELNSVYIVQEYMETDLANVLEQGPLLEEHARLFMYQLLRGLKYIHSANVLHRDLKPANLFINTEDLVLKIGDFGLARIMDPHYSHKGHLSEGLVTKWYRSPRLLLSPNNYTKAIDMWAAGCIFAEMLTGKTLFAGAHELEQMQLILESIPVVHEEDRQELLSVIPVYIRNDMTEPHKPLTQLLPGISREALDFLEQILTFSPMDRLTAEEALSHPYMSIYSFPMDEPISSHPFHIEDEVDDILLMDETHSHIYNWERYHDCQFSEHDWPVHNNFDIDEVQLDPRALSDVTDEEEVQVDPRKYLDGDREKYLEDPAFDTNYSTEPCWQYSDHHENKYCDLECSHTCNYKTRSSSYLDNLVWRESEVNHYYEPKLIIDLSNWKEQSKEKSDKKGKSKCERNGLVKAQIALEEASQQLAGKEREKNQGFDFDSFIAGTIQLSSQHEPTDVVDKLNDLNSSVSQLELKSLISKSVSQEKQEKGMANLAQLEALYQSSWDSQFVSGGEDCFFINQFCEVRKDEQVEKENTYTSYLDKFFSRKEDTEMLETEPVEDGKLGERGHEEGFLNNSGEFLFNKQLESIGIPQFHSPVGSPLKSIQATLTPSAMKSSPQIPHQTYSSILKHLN
UniProt Q9WVH4: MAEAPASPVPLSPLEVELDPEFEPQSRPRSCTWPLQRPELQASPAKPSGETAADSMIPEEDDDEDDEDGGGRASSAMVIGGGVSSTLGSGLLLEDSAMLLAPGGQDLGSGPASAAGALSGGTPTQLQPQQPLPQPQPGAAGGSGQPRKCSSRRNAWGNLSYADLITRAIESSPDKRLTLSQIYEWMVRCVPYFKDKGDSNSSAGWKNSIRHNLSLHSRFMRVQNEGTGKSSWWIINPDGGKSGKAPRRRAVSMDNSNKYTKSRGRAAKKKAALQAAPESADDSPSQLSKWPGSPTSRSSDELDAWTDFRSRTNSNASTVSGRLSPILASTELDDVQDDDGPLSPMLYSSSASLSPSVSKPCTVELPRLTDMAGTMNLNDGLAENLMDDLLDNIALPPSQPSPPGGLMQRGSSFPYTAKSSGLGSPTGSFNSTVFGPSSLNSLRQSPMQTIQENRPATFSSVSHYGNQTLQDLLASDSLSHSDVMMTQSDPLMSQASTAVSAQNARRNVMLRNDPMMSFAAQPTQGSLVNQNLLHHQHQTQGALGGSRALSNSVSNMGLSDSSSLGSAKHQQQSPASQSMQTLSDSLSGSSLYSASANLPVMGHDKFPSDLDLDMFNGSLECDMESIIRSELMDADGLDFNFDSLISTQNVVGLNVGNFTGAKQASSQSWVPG

Common to all, as to experiment: co-IP
One experiment addresses MyoD (UniProt P10085).
Experiment [1] has as its target MK5-Flag (MAPK-activated protein kinase 5) (UniProt Q8IW41).
Experiment [2] addresses Myc6-ERK3-Flag (Extracellular Signal-Regulated Kinase 3) (UniProt Q16659).

With FoxO3-Myc (from UniProt Q9WVH4 1-672), the binding entry (with MyoD; in experiment [1]) was “binds” throughout.
Consider “MK5-HA (MAPK-activated protein kinase 5) (from UniProt Q8IW41 1-473) (enzyme)”, for which the binding result in experiment [2] was “binds”.

The values above are taken from article doi:10.1101/2021.04.29.441967.
